The values are deposited in ChEMBL (CHEMBL3988442, “University of Dundee, Small-Polar-MMV Screening Library” (2021)).

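Growth of Mycobacterium tuberculosis over 3 days (7H9 medium with glucose and tyloxapol); the read-out is not stated. Compounds at 50 µM. Higher reads as more growth inhibition (inferred: compounds with an IC50 in retests scored well above the rest). About 69,000 compounds were tested under these conditions; 1.1% (about 760) showed 50% or more at least once.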

Values are the deposited “Percent Effect”, in %.
The record does not define 0% and 100%; most values in the screen are far below 50% and negative numbers occur (in some assays of this library far below -100).
Compounds were drawn at random from those tested, without regard to their results.
Two or more numbers in one place are separate tests of the same structure; such repeats can differ widely.

{"structure": "O=C(N1CCCC1)N1CCC(c2nccn2Cc2cscn2)CC1", "Percent Effect": -2.664}
{"structure": "COc1ccc2c(c1)OCC(Cc1cnc(N)c(C)c1)C2", "stereo": "configuration not stated", "Percent Effect": -17.6}
{"structure": "CCCn1ncc(C2CC(=O)NCc3nc4cc(C)ccn4c32)c1C", "stereo": "configuration not stated", "Percent Effect": -13.21}
{"structure": "NC(=O)[C@@H]1Cc2ccccc2N1C(=O)C1CC(c2ccccc2)=NO1", "stereo": "some centres not stated", "Percent Effect": -4.344}
{"structure": "O=C(c1ccco1)N1CCCC(c2cc(C(F)F)n3ncnc3n2)C1", "stereo": "configuration not stated", "Percent Effect": -11.52}
{"structure": "Cc1n[nH]c(C)c1CC(=O)N1CCC(O)(CN2CCOCC2)C1", "stereo": "configuration not stated", "Percent Effect": -23.3}
{"structure": "Cn1cc(N2CC3(COCCN(Cc4ccccn4)C3)OCC2=O)cn1.O=C(O)C(F)(F)F", "stereo": "configuration not stated", "Percent Effect": -35.93}
{"structure": "Cc1ncc(C(=O)N2CCCCC2c2nc3cc(F)ccc3[nH]2)c(O)n1", "stereo": "configuration not stated", "Percent Effect": -13.98}
{"structure": "NC(=O)C1CCN(C(=O)NCCOc2ccc3c(c2)OCO3)C1", "stereo": "configuration not stated", "Percent Effect": 11.48}
{"structure": "CCN(CC)C1CCN(C(=O)Nc2cc(F)c(OC)c(F)c2)C1", "stereo": "configuration not stated", "Percent Effect": "27.97 and -1.035"}
{"structure": "Cl.Cl.c1c(CN2CCCCC2)nc2n1CCNC2", "Percent Effect": "-5.23 and -34.44"}
{"structure": "CCSCCC(C)N(C)C(=O)c1ccc(C)o1", "stereo": "configuration not stated", "Percent Effect": 5.681}
{"structure": "CNc1nc2c(s1)C(c1cccc(F)c1F)CC(=O)N2", "stereo": "configuration not stated", "Percent Effect": "4.288 and 1.172"}
{"structure": "Cc1nnnn1-c1cc(NCc2cccc(C#N)c2)ccc1F", "Percent Effect": -24.89}
{"structure": "CCCc1nc(CNc2nc(C)nc3oc(C)nc23)cs1", "Percent Effect": -13.28}
{"structure": "Cc1cc(C(F)(F)F)nn1CCCNC(=O)C1CCCO1", "stereo": "configuration not stated", "Percent Effect": 6.476}
{"structure": "O=C(O)C(F)(F)F.[H][C@@]12CN(CC)C[C@]1(C(=O)N(C)C)CCC21CCN(S(=O)(=O)CC)CC1", "Percent Effect": "-11.33 and 1.514"}
{"structure": "c1cnn(CC2CCCN2c2ncnc3ccsc23)c1", "stereo": "configuration not stated", "Percent Effect": 4.597}
{"structure": "COc1cc(-c2n[nH]c(CO)n2)cc(OC)c1OC", "Percent Effect": -43.85}
{"structure": "Cc1ccc2c(c1)C(NC(C)C)CC21CCNCC1.Cl", "stereo": "configuration not stated", "Percent Effect": "-16.87 and 0.08659"}
{"structure": "COc1nc2c(cc1C(=O)N1CC[C@H](CO)[C@@H](O)C1)CCC2", "Percent Effect": -12.34}
{"structure": "Cn1c(C(F)(F)F)nn(CCNC(=O)c2nc3ccccc3s2)c1=O", "Percent Effect": 26.26}
{"structure": "O=C(C1CCCC1)N1CC(c2nc(Cc3ccccc3)no2)C1", "Percent Effect": 7.338}
{"structure": "CCN(Cc1cccnc1)CC1CCCO1", "stereo": "configuration not stated", "Percent Effect": "2.92 and -11.81"}
{"structure": "Cc1cc(N2CCC(Cc3cccnc3)C2)ncn1", "stereo": "configuration not stated", "Percent Effect": 26.16}
{"structure": "Fc1ccc(OCCCNC2=NCCN2)cc1.I", "Percent Effect": 13.44}
{"structure": "COc1cccc2c1OCC(C(=O)NCCn1nc(C)c(Cl)c1C)C2", "stereo": "configuration not stated", "Percent Effect": 15.56}
{"structure": "Cc1cc(C)n(CC2CN(Cc3ccc(C(N)=O)cc3)CCO2)n1", "stereo": "configuration not stated", "Percent Effect": -8.415}
{"structure": "CC(C)n1cnnc1CN(C)CC1CCOC1", "stereo": "configuration not stated", "Percent Effect": -1.609}
{"structure": "O=C(CCc1ccccc1)N1CCn2cc(CN3CCCC3)nc2C1", "Percent Effect": 32.85}
{"structure": "Cc1cc(CN(C2CC2)C(C)C(C)C)on1", "stereo": "configuration not stated", "Percent Effect": "-5.389 and 18.89"}
{"structure": "c1cncc(COCC2CN(Cc3ccsc3)Cc3ccnn3C2)c1", "stereo": "configuration not stated", "Percent Effect": "-27.26 and -4.588"}
{"structure": "[H][C@@]12CS(=O)(=O)C[C@]1([H])N(C(=O)Cc1ccc(F)c(C)c1)CCN2C", "Percent Effect": -5.866}
{"structure": "Cc1cnc(N2CCCn3c(nnc3Cn3cccn3)C2)nc1", "Percent Effect": "-16.68 and -5.691"}
{"structure": "O=C(O)C(F)(F)F.O=C(O)C(F)(F)F.[H][C@@]12OCCN(Cc3ccsc3)[C@@]1([H])CC[C@H]2OCc1cccc(C)n1", "Percent Effect": 17.78}
{"structure": "Cc1nnc(C2Cc3ccccc3CN2Cc2nc(C3CC3)no2)o1", "stereo": "configuration not stated", "Percent Effect": 32.32}
{"structure": "Cn1ncnc1NCc1ccc(Cl)cc1", "Percent Effect": 29.67}
{"structure": "CCCOc1ccc(CC2=NC(C)(CO)CO2)cc1", "stereo": "configuration not stated", "Percent Effect": "18.06 and 40.67"}
{"structure": "CC(Cn1cc(Br)cn1)C(=O)Nc1ccc(Br)cn1", "stereo": "configuration not stated", "Percent Effect": 55.2}
{"structure": "CC(C)N1CCCC(CNC(=O)CN(C)S(=O)(=O)c2ccccc2)C1", "stereo": "configuration not stated", "Percent Effect": -13.62}
{"structure": "Cc1ccccc1C(CC(=O)NCC(N)=O)c1ccccc1", "stereo": "configuration not stated", "Percent Effect": 33.98}
{"structure": "CCOCC1CN(C(=O)c2cccs2)Cc2nn(C)cc21", "stereo": "configuration not stated", "Percent Effect": "-10.06 and 0.03509"}
{"structure": "Cc1nn(C)cc1Cn1c(=O)c(C)nc2ccccc21", "Percent Effect": -23.6}
{"structure": "[H][C@]12CC[C@@]3(N=C(CC)N(CCOC)C3=O)[C@@]1([H])CN(C(=O)NCC(C)C)C2", "Percent Effect": "30.19 and -1.855"}
{"structure": "CN(Cc1ncnn1C)C(=O)CCn1ccc2ccccc21", "Percent Effect": "18.75 and 32.75"}
{"structure": "N#CCC(=O)NCc1nnc2n1CCN(Cc1nccs1)C2", "Percent Effect": "-0.5876 and 12.89"}
{"structure": "O=S(=O)(NCc1ccc(S(=O)(=O)N2CCCC2)s1)c1ccc(Cl)c(Cl)c1", "Percent Effect": 3.041}
{"structure": "CC(=O)N1CCN(c2ccccc2CNc2cncc(C)c2)CC1", "Percent Effect": -6.535}
{"structure": "O=C(O)c1ccc2[nH]cc(CN3CCOCC3)c2c1", "Percent Effect": -27.98}
{"structure": "CC(C)c1nccn1-c1cncc(C2CCCN(C3CCCC3)C2)n1", "stereo": "configuration not stated", "Percent Effect": -8.002}
{"structure": "COc1ccc(-n2cc(CNC(=O)c3ccccn3)nn2)cc1", "Percent Effect": "65.28 and 1.168"}
{"structure": "CNC(=O)c1cccc(CNC2CCCSc3ccccc32)c1", "stereo": "configuration not stated", "Percent Effect": "14.61 and -6.772"}
{"structure": "CC(=O)N1CCN(CCNS(=O)(=O)c2c(F)cccc2F)CC1", "Percent Effect": 6.068}